Reference: PubChem BioAssay AID651640 (Broad Institute, 2012)
The whole screen tested about 350,000 compounds, of which about 6,000 (1.7%) were called active. This list was built around the results that the source calls inconclusive (neither active nor inactive); the mix of calls is not that of the screen. Rule as the data show it: active = CPE inhibition above about 20% (passing the limit was not always enough); inconclusive = no clear call, values can overlap the other calls; tested in BHK-21 cells.

assay: protection of cells from dengue 2 killing – plate reader, single concentration, primary screen (AID 651640); settings: DENV2-infected cells, cytopathic effect rescue, at 9.99 µM, stronger effect = higher value;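 also: 0% = median of neutral control wells and 100% = median of positive control wells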

| Structure (SMILES) | CPE inhibition |
| --- | --- |
| CCCN(C)C[C@H]1OCCCC[C@@H](C)Oc2ccc(NC(=O)Nc3ccc(C(F)(F)F)cc3)cc2C(=O)N([C@H](C)CO)C[C@H]1C | inactive: -28.3% |
| CCSc1nnc(NC(=O)C2CC2c2ccccc2)s1 (stereo unspecified) | inconclusive: 28.6% |
| Cc1cnc(C(=O)NCc2ccc(Cl)cc2Cl)cn1 | inactive: 4.85% |
| COc1ccc(CN(C)C[C@H]2Oc3ccc(NC(=O)C4CCCCC4)cc3C(=O)N([C@@H](C)CO)C[C@H]2C)cc1 | active: 24.6% |
| O=C(CN1C(=O)c2cccnc2Oc2ccc(Cl)cc21)N1CCCC1 | inconclusive: 28.7% |
| S=C1NC2(CCCC2)N=C1c1ccccc1 | inactive: 0.358% |
| Cc1ccc(C)c(OCCC(=O)OC(C)C(=O)Nc2c(C)n(C)n(-c3ccccc3)c2=O)c1 (stereo unspecified) | inconclusive: 20.5% |
| COCC(=O)Nc1ccc2c(c1)C(=O)N(C)C[C@@H](OC)[C@H](C)CN(Cc1cncnc1)[C@@H](C)CO2 | active: 20.9% |
| Cc1noc(C)c1NC(=O)Nc1cccc2c1O[C@@H](CN(C)C(=O)Nc1ccc3c(c1)OCO3)[C@H](C)CN([C@@H](C)CO)C2=O | inconclusive: 46.4% |
| CC=Cc1ccc2n(c1=O)C[C@H]1[C@H](CO)[C@@H](C(=O)NCCC)[C@@H]2N1C(=O)c1ccccc1F (mixture of isomers) | inconclusive: 52.2% |
| C[C@@H]1CCCCO[C@H](CN(C)C(=O)Nc2ccc(C(F)(F)F)cc2)[C@@H](C)CN([C@@H](C)CO)C(=O)c2cc(NC(=O)C3CCCCC3)ccc2O1 | active: 21.8% |
| CCN(CC)C(=O)C1=C(C)N(Cc2ccccc2)C(=O)C(CC(=O)NCC2CCCCC2)C1 (stereo unspecified) | inconclusive: 32.6% |
| COc1cc(C(=O)Nc2cccc(NC(=O)c3cccs3)c2)cc(OC)c1OC | inconclusive: 24.2% |
| COc1ccccc1S(=O)(=O)N[C@@H]1C=C[C@@H](CC(=O)N2CCN(C)CC2)O[C@H]1CO | inconclusive: 44.7% |
| CN1CCN(C(=O)[C@@H]2[C@@H](CO)[C@@H]3Cn4c(ccc(C5=CCCC5)c4=O)[C@@H]3N2Cc2nccs2)CC1 | inconclusive: 66.3% |
| CC(C)C[C@@H]1NC(=O)[C@H]2C[C@@H](C(=O)NCCCCCNC(=O)CS)[C@@H](c3cccc(OCCO)c3)N2C1=O | active: 21.1% |
| COc1ccc(-n2c(CNC(=O)COc3ccc(Cl)cc3Cl)n[nH]c2=S)cc1 | inactive: -1.71% |
| CN/C(=C/[N+](=O)[O-])NCCSCc1ccc(CN(C)C)o1 | inactive: 4.29% |
| O=C(C[C@@H]1C[C@H]2c3cc(NC(=O)Nc4ccccc4)ccc3O[C@H]2[C@H](CO)O1)NCc1ccccn1 | inconclusive: 26.4% |
| Cc1ccccc1OCC(=O)Nc1cnn(CCCC(=O)O)c1 | inactive: 1.04% |
| COc1ccc(-c2ccccc2[C@@H]2[C@H](C#N)N(C(=O)C3CC3)[C@H]2CO)cc1 | active: 45% |
| COCC(=O)N(C)C[C@@H]1Oc2cc(C#CCC3CCCC3)ccc2S(=O)(=O)N([C@H](C)CO)C[C@@H]1C | inconclusive: 23.9% |
| Cc1cccc(OCC(=O)Nc2nc(-c3ccncc3)cs2)c1 | inconclusive: 26% |
| NC(=O)c1cc(Cl)cn(-c2ccccc2)c1=O | active: 82.5% |

Rewritten as tab-separated lines: part of the list above.
Structure (SMILES)	CPE inhibition
COc1ccc(-n2c(CNC(=O)COc3ccc(Cl)cc3Cl)n[nH]c2=S)cc1	inactive: -1.71%
NC(=O)c1cc(Cl)cn(-c2ccccc2)c1=O	active: 82.5%

Later entries

| Structure (SMILES) | CPE inhibition |
| --- | --- |
| CCN(CC)C(=O)C1=C(C)N(Cc2ccc(C(C)(C)C)cc2)C(=O)C(CC(=O)NC(c2ccccc2)c2ccccc2)C1 (stereo unspecified) | inconclusive: 20.5% |
| COc1ccc(-c2noc(=O)n2Cc2ccccc2F)cc1 | inconclusive: 28.4% |
| Cc1c(Cl)cccc1NC(=O)COC(=O)Cn1cnc2c1c(=O)n(C)c(=O)n2C | inconclusive: 23% |
| CCc1cc2cc(C)cc(C)c2[nH]c1=S | inconclusive: 28.3% |
| COC(=O)CN1C(=O)N/C(=C/c2cc3c(cc2OC)OCO3)C1=O | inactive: 2.29% |
| C[C@@H]1CN([C@@H](C)CO)C(=O)c2cc(NS(C)(=O)=O)ccc2O[C@@H](C)CCCCO[C@@H]1CN(C)C(=O)Nc1ccc(F)cc1 | inactive: 1.42% |
| COc1ccc(NC(=O)Nc2cccc3c2O[C@@H](CN(C)Cc2ccc(Oc4ccccc4)cc2)[C@@H](C)CN([C@@H](C)CO)C3=O)cc1 | inconclusive: 26% |
| Cc1nc(N2CCN(Cc3ccc(Cl)cc3)CC2)c2oc3ccccc3c2n1 | inconclusive: 60.4% |
| Cc1nc(SCc2nc3ccccc3[nH]2)c2oc3ccc(Br)cc3c2n1 | inconclusive: 23.7% |
| CO[C@H]1CN(C)C(=O)c2cc(NC(C)=O)ccc2OC[C@H](C)N(Cc2cccc(F)c2)C[C@@H]1C | inactive: 2.54% |
| C=CCn1c(=NC(=O)CN2C(=O)CCC2=O)sc2cccc(OC)c21 | inconclusive: 22.8% |
| COc1ccc(-c2cc(C(=O)Nc3cc(Cl)ccc3O)no2)cc1 | inconclusive: 36.3% |
| COc1nc(C)nc(Cl)c1NC1=NCCN1 | inconclusive: 24.9% |
| CN(Cc1ccc(Cl)c(Cl)c1)C(=O)C1CC(=O)N(c2ccc3c(c2)OCCO3)C1 (stereo unspecified) | active: 29.7% |
| COc1ccc(-c2[nH]ncc2CN2CCC(OCc3ccccn3)CC2)c(F)c1 | inconclusive: 21.1% |
| CCc1ccccc1NC(=O)CN(C)C(=O)Cn1ncc(Cl)c(Cl)c1=O | inconclusive: 48.8% |
| CCC(=O)Nc1ccc2c(c1)OC[C@H](C)N(C(=O)c1ccc(F)cc1)C[C@@H](C)[C@@H](OC)CN(C)C2=O | inconclusive: 58.8% |
| CN1C(=O)c2cc(NC(=O)c3ccc(C(F)(F)F)cc3)ccc2OC[C@@H]2O[C@@H](CC(=O)O)CC[C@@H]21 | inconclusive: 90% |
| C[C@H](CO)N1C[C@H](C)[C@@H](CN(C)S(=O)(=O)c2cccs2)Oc2ccc(NC(=O)Nc3ccc(C(F)(F)F)cc3)cc2CC1=O | inactive: 3.14% |
| CC1(C)CCc2c([nH]c3ccccc3c2=O)O1 | inconclusive: 37.4% |
| COc1ccc(NC(=O)/C(=C/c2ccc(OC(C)=O)c(OC)c2)NC(C)=O)cc1 | inconclusive: 22.9% |
| Cc1ccc(-c2csc(N3CCC(C(N)=O)CC3)n2)cc1 | inconclusive: 106% |
| O=C(C[C@@H]1CC[C@@H]2[C@H](COC[C@H](O)CN2Cc2cc(F)cc(F)c2)O1)NC1CCCC1 | inactive: 0.488% |
| C[C@H]1CN([C@@H](C)CO)C(=O)c2cc(NS(=O)(=O)c3ccc(F)cc3)ccc2O[C@H]1CN(C)S(=O)(=O)c1ccc(Cl)cc1 | active: 26.3% |

2 of the compounds above, in CSV form.
Structure (SMILES),CPE inhibition
COc1ccc(NC(=O)Nc2cccc3c2O[C@@H](CN(C)Cc2ccc(Oc4ccccc4)cc2)[C@@H](C)CN([C@@H](C)CO)C3=O)cc1,inconclusive: 26%
Cc1nc(N2CCN(Cc3ccc(Cl)cc3)CC2)c2oc3ccccc3c2n1,inconclusive: 60.4%

Remaining list, next part:

| Structure (SMILES) | CPE inhibition |
| --- | --- |
| COc1ccccc1-c1ccc2c(c1)O[C@@H](CN(C)C(=O)c1ccncc1)[C@H](C)CN([C@@H](C)CO)S2(=O)=O | inconclusive: 78.1% |
| C[C@H]1CCCCO[C@H](CN(C)C)[C@@H](C)CN([C@@H](C)CO)C(=O)c2cc(NC(=O)c3ccncc3)ccc2O1 | inconclusive: 45.4% |
| CSc1ccc(NC(=O)NN(c2ccccc2)C2CCS(=O)(=O)C2)cc1 (stereo unspecified) | inconclusive: 24% |
| CCC(c1nnnn1-c1ccc2c(c1)OCCO2)N1CCN(c2cc(C)ccc2C)CC1 (stereo unspecified) | inconclusive: 31.6% |
| COc1ccc(NC(=O)Nc2ccc3c(c2)[C@@H]2C[C@H](CC(=O)N(C)C)O[C@@H](CO)[C@@H]2O3)cc1 | inactive: -3.98% |
| O=C1CC(c2ccccc2)Oc2ccc(Cl)cc21 (stereo unspecified) | inconclusive: 20.1% |
| O=C(N/N=C/c1cccc(O)c1)c1ccc(COc2cccc3cccnc23)cc1 | inactive: 1.75% |
| C[C@@H]1CN([C@H](C)CO)C(=O)c2cc(C#CCN(C)C)cnc2O[C@H]1CN(C)Cc1ccccc1 | inactive: 3.97% |
| C[C@@H]1CN([C@H](C)CO)S(=O)(=O)c2ccc(-c3cccc(F)c3)cc2O[C@H]1CN(C)S(=O)(=O)c1ccc(F)cc1 | inconclusive: 24.6% |
| CCC(=O)N1[C@@H](CO)[C@@H]2c3ccccc3N(C(=O)CC(F)(F)F)C[C@@H]21 | inconclusive: 33% |
| CCC(=O)N1C[C@H](C)[C@H](OC)CN(C)C(=O)c2cc(NC(=O)Nc3cccc(F)c3)ccc2OC[C@@H]1C | inconclusive: 28.2% |
| O=C(O)C1=C[C@H](c2ccc(F)cc2)C[C@H](OCc2ccc(CO)cc2)O1 | inconclusive: 24.1% |
| C=CCOC(=O)C1=C[C@@H](c2csc3ccccc23)C[C@@H](OCc2ccc(CO)cc2)O1 | inconclusive: 21.4% |
| C[C@H](O)C#Cc1ccc2c(c1)O[C@@H](CN(C)C)[C@H](C)CN([C@H](C)CO)S2(=O)=O | inactive: 12.8% |
| CCOc1ccccc1OCCC(=O)Nc1ccc(F)c(Cl)c1 | inconclusive: 20.4% |
| O=C(CN1CCN(C(c2ccccc2)c2ccccc2)CC1)Nc1ccc(N2CCOCC2)cc1 | inactive: -6.05% |
| CCOc1ccc2[nH]c(=O)c(CN(CCCN3CCOCC3)Cc3nnnn3Cc3ccc(OC)cc3)cc2c1 | inactive: 5.12% |
| CN(C[C@H]1[C@@H](c2ccccc2)[C@@H](CO)N1C(=O)C1CC1)C(=O)c1ccccn1 | inconclusive: 55.7% |
| Cc1ccc(S(=O)(=O)N(C)C[C@H]2OCCCC[C@@H](C)Oc3ccc(NC(=O)Nc4ccc(C(F)(F)F)cc4)cc3C(=O)N([C@H](C)CO)C[C@@H]2C)cc1 | active: 66.5% |
| CCc1nnc(NS(=O)(=O)c2ccc(NC(=O)c3ccccc3OC)cc2)s1 | inconclusive: 22% |
| C[C@H]1CN([C@@H](C)CO)C(=O)c2cc(NS(=O)(=O)c3ccccc3)ccc2O[C@@H]1CN(C)Cc1ccc(C(F)(F)F)cc1 | inconclusive: 59.4% |
| C[C@@H]1CN([C@@H](C)CO)C(=O)c2cc(-c3cccnc3)cnc2O[C@@H]1CN(C)C | inactive: 13.9% |
| O=C(c1cc(-c2cccnc2)nc2ccccc12)N1CCN(S(=O)(=O)c2cccs2)CC1 | inconclusive: 21.4% |
